Measured values as given in patent US20240360223A1.
Results are given in words; binding and its absence hold for the method and conditions named. Some entries that bind do so weakly or less than the wild type.

Sequences of proteins named here, by UniProt entry; tags and fusion partners are left off. A change or cut given only in a name is not applied to a line headed by its entry.
UniProt Q96RJ3: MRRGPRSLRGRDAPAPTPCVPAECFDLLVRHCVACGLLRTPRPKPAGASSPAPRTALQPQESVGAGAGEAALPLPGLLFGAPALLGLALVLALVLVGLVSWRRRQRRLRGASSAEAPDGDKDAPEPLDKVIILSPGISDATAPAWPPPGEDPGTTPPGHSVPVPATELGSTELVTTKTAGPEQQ

Assays:
[1] = biological target: hBAFF-R-hFc-His fusion protein (human) (UniProt Q96RJ3); experiment: yeast display flow cytometry: ianalumab-based scFv on yeast, biotinylated hBAFFR-Fc read as Binding-PE against Expression FITC; left panel, before the arrow to t = 120' (no time label on this sheet)
[2] = biological target: hBAFF-R-hFc-His fusion protein (human) (UniProt Q96RJ3); experiment: flow cytometry, scFv on yeast, off-rate challenge

- binding [1]: binds
- binding [2]: binds
B1: ianalumab-based scFv benchmark control (scFv, V domains shown)
VH: QVQLQQSGPGLVKPSQTLSLTCAISGDSVSSNSAAWGWIRQSPGRGLEWLGRIYYRSKWYNSYAVSVKSRITINPDTSKNQFSLQLNSVTPEDTAVYYCARYQWVPKIGVFDSWGQGTLVTVSS
VL: DIVLTQSPATLSLSPGERATLSCRASQFILPEYLSWYQQKPGQAPRLLIYGSSSRATGVPARFSGSGSGTDFTLTISSLEPEDFAVYYCQQFYSSPLTFGQGTKVEIK
